The values that follow come from paper PMC5451543.

Chains of the proteins cited; added tags and fusions are not shown. Lines headed by an entry give the natural chain unless they say otherwise; changes in a name come on top.
UniProt P28070: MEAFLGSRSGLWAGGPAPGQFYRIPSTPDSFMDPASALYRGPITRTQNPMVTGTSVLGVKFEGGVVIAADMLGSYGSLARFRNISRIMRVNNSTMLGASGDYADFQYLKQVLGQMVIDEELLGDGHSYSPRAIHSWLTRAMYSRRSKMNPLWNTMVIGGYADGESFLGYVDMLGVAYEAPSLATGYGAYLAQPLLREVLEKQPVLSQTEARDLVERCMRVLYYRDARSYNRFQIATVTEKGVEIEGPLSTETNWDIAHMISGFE

Where a chain is given by its changes, count along the chain named. Results are given in words; binding and its absence hold for the method and conditions named. Binding seen in cells or lysates may run through a third protein. For part of these data: Where a sequence is shown, tags or fusion partners need not be part of it.

For experiment [1], the target named is FLAG-β4 (human) (UniProt P28070). Nature of the experiment: co-IP; HEK293T co-transfected with tagged proteins; FLAG lysis buffer (300 mM NaCl, 25 mM Tris–HCl pH 7.5, 2 mM EDTA, 1% Triton X-100); IP with anti-FLAG antibody, western blot; some panels with UBLCP1 knockout, siRpn1 or HA-Rpn1 overexpression. For orientation: A western blot detects proteins with antibodies after separation by electrophoresis.

The target is the same in experiment [2]. The experiment in a line: co-IP; HEK293T transfected with FLAG-β4 alone, 48 h; IP with anti-FLAG antibody; endogenous partners probed by western blot.

B1: HA-UBLCP1 (protein, UniProt Q8WVY7 1-318)
chain: MALPIIVKWGGQEYSVTTLSEDDTVLDLKQFLKTLTGVLPERQKLLGLKVKGKPAENDVKLGALKLKPNTKIMMMGTREESLEDVLGPPPDNDDVVNDFDIEDEVVEVENREENLLKISRRVKEYKVEILNPPREGKKLLVLDVDYTLFDHRSCAETGVELMRPYLHEFLTSAYEDYDIVIWSATNMKWIEAKMKELGVSTNANYKITFMLDSAAMITVHTPRRGLIDVKPLGVIWGKFSEFYSKKNTIMFDDIGRNFLMNPQNGLKIRPFMKAHLNRDKDKELLKLTQYLKEIAKLDDFLDLNHKYWERYLSKKQGQ
B1: in experiment [1], the binding result is on record as “no binding”.

B2: endogenous UBLCP1 (protein, UniProt Q8WVY7 1-318)
chain: B1 chain
As for B2, the binding entry in experiment [2] was “no binding”.

B3: HA-UBLCP1 DDAA (protein, UniProt Q8WVY7 1-318)
chain: B1 chain with D143A, D145A
Take B3: the binding result in experiment [1] was “no binding”.
